Article doi:10.1101/096271

The chains behind the UniProt entries cited, without tags or fusion partners.
UniProt P06730: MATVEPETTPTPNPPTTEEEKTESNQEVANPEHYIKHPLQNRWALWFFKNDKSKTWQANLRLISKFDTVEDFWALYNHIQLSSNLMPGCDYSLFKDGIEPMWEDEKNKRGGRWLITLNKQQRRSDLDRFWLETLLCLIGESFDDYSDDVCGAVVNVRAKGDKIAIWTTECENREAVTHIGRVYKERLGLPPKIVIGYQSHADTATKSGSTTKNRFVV

target: T1, FKBP7 (human (endogenous in IGR-CaP1-Dtx-R, RPE-1 and 22RV1-Dtx-R)) (UniProt Q9Y680); assay: affinity purification with mass spectrometry
T1 sequence: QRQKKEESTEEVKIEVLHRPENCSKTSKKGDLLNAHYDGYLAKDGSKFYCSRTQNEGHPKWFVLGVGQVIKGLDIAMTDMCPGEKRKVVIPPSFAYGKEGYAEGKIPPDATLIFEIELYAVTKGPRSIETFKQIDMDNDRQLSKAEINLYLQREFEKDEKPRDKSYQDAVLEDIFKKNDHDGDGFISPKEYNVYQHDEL

binding, binds:
eIF4A
eIF4E (from UniProt P06730 1-217)
Hsp70 (human (endogenous in IGR-CaP1-Dtx-R))
eIF4G

These are yes or no findings as the source states them, for the method shown. Binding seen in cells or lysates may run through a third protein. Here binding means that the protein was enriched with, or labelled near, the bait; the list need not be complete.
